Some of the results follow.
Tests used:
Test in all cases: log2 fold change, soluble protein after heating vs DMSO (PISA); higher = thermal stabilisation; K562 cells, 10 uM, 30 min; active = over 0.2 and 3.5 SD of the protein, either way, in both replicates (recomputed)
[1] = compound: CC1=C(C=C(C=C1)NC(=O)C2=CC(=CC=C2)C(C)(C)C#N)NC3=CC4=C(C=C3)N=CN(C4=O)C
In short: (§1)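 Values are thermal stability changes relative to control samples and are taken from duplicates. They are stated as log2 fold changes. Before quantification by TMTpro 16plex LC-MS/MS with equalised channel sums, K562 cells at 2×10^6 cells/mL were treated with 10 μM compound for 30 min, heated in aliquots for 3 min across 48°C-58°C, pooled, extracted in PBS with 0.5% NP-40 at 4°C, and centrifuged at 21,000xg for 90 min to give the soluble supernatant.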

Sequences of proteins named here, by UniProt entry; tags and fusion partners are left off. A change or cut given only in a name is not applied to a line headed by its entry.
UniProt P20020: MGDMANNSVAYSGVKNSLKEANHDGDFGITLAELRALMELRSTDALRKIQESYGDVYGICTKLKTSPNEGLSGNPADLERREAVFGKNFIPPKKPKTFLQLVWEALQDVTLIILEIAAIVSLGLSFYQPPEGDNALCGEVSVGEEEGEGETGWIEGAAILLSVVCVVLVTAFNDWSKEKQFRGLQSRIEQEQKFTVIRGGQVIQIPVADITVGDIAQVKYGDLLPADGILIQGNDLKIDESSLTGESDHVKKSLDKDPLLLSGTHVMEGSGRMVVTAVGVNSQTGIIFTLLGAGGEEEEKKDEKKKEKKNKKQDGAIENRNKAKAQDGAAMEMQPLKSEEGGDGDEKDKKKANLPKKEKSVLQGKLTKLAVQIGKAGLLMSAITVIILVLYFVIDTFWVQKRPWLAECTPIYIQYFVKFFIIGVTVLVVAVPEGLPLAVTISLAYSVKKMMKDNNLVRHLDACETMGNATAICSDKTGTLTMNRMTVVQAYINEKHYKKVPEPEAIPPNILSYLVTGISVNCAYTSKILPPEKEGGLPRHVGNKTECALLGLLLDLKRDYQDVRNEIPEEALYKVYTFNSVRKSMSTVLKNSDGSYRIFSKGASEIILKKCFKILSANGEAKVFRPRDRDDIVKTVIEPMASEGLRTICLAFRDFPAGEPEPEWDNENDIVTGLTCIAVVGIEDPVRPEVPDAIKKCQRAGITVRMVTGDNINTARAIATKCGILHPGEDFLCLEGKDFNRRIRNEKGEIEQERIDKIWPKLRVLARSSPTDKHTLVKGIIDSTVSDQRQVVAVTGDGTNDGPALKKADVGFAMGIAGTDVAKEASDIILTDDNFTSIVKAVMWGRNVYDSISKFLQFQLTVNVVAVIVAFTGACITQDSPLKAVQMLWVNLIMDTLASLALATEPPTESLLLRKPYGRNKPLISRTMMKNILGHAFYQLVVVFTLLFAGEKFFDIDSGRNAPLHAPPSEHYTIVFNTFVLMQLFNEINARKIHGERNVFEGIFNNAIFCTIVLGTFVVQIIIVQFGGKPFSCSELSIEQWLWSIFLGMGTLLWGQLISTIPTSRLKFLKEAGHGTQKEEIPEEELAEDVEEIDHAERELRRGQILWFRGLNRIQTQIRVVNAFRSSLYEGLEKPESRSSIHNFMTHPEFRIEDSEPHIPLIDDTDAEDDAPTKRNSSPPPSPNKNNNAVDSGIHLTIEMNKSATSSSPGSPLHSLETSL
UniProt P48047: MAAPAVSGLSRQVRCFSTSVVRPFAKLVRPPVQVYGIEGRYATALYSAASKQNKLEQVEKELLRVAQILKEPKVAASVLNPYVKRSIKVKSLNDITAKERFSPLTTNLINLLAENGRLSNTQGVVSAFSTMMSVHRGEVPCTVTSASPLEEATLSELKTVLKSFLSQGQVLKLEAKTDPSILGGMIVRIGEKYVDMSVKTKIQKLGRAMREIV
UniProt P21281, whole entry, looked up: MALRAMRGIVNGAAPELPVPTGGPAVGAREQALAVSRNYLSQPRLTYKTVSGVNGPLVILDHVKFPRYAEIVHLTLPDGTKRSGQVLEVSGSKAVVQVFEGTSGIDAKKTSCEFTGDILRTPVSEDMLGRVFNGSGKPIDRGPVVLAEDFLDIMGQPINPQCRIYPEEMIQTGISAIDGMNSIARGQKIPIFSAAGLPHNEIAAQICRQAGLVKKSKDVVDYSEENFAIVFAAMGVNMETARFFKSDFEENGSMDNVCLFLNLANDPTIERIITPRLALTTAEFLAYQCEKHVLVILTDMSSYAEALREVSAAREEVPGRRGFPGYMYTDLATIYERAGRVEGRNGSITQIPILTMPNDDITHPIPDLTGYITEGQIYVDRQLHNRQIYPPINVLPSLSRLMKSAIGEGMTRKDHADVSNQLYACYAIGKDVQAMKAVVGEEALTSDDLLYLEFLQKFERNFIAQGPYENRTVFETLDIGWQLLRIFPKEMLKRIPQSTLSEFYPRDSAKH
UniProt Q7L266: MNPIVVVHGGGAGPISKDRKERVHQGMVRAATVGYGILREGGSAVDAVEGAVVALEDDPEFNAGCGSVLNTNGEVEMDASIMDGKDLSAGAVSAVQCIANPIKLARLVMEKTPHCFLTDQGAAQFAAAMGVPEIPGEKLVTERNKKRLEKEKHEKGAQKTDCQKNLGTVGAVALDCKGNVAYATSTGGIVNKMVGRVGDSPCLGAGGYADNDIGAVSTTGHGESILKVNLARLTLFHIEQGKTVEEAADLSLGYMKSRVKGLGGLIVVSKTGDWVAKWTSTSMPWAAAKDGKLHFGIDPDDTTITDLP
UniProt O75947: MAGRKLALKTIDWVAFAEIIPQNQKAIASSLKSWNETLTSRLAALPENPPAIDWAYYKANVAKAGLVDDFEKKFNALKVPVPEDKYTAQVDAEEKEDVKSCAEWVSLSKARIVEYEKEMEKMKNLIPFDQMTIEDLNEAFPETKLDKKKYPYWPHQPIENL
UniProt Q9BZE9, whole entry, looked up: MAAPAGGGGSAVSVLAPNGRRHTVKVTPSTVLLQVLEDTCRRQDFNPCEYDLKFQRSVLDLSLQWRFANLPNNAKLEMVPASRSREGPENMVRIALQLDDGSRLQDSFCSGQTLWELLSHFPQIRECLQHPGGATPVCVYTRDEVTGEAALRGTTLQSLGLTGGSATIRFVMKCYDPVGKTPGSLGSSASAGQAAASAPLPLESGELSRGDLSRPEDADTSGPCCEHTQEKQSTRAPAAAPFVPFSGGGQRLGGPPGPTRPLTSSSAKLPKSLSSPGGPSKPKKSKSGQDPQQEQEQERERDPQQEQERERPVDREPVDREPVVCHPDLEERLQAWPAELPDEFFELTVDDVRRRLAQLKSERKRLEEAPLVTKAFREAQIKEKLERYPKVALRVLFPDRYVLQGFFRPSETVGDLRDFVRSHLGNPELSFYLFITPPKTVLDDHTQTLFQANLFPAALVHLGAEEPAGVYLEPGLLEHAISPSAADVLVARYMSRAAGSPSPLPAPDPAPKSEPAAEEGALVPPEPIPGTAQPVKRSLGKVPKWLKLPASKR
UniProt Q676U5: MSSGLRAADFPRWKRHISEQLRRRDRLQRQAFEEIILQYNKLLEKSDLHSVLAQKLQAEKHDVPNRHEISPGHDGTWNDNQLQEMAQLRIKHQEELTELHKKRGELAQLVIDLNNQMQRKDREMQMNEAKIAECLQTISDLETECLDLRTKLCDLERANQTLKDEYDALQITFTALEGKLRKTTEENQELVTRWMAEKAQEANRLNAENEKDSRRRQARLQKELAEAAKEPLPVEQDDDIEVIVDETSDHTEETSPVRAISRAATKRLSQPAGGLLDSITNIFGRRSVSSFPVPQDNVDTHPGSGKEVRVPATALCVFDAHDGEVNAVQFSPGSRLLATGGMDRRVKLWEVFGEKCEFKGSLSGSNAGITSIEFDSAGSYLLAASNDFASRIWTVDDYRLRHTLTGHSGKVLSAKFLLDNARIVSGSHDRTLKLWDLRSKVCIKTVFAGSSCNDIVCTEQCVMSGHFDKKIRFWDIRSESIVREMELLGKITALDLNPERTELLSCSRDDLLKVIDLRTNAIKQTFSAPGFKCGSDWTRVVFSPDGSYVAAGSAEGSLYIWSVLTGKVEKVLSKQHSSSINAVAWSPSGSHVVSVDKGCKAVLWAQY
UniProt O75964: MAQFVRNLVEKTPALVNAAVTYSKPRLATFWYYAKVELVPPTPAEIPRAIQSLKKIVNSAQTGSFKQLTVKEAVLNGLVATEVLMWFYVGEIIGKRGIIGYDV
UniProt Q9Y5K8, whole entry, looked up: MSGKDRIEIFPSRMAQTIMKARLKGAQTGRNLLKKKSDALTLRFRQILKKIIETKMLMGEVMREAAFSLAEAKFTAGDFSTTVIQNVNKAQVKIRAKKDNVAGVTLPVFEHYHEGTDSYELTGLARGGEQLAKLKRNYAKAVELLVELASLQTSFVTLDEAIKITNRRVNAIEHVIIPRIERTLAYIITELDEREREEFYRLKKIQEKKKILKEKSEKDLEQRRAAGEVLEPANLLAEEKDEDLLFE
UniProt Q6NXE6: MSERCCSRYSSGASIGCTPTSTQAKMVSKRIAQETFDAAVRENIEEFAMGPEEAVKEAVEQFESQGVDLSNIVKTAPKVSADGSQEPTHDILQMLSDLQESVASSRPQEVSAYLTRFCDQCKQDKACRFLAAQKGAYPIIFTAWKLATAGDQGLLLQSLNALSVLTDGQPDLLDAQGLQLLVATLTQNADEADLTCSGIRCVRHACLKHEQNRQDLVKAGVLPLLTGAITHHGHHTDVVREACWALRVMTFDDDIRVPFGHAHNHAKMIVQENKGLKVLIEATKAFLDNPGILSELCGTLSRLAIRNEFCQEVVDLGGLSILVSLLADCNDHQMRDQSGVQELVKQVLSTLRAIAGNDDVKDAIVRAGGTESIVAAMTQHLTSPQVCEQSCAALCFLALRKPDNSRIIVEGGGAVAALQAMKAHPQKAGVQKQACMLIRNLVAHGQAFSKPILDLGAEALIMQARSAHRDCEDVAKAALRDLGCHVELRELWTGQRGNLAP
UniProt P24539: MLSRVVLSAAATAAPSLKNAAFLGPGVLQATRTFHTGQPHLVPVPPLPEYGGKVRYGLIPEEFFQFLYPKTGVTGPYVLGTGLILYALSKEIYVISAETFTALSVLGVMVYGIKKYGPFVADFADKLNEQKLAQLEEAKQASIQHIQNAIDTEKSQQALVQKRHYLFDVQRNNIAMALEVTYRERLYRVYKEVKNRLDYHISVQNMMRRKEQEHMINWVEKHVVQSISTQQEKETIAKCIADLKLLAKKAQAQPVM
UniProt P36543, whole entry, looked up: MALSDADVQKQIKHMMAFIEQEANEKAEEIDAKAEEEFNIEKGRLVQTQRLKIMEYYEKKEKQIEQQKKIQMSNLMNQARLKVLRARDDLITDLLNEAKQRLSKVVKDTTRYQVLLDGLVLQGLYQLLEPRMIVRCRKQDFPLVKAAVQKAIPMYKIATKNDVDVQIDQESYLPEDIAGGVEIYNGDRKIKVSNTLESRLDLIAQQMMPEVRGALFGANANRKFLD
UniProt Q96BM9: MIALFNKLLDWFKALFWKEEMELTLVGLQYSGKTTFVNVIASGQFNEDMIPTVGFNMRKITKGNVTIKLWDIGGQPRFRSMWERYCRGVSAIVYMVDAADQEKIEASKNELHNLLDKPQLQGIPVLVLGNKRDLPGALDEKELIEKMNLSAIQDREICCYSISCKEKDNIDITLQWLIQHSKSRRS
UniProt O95671: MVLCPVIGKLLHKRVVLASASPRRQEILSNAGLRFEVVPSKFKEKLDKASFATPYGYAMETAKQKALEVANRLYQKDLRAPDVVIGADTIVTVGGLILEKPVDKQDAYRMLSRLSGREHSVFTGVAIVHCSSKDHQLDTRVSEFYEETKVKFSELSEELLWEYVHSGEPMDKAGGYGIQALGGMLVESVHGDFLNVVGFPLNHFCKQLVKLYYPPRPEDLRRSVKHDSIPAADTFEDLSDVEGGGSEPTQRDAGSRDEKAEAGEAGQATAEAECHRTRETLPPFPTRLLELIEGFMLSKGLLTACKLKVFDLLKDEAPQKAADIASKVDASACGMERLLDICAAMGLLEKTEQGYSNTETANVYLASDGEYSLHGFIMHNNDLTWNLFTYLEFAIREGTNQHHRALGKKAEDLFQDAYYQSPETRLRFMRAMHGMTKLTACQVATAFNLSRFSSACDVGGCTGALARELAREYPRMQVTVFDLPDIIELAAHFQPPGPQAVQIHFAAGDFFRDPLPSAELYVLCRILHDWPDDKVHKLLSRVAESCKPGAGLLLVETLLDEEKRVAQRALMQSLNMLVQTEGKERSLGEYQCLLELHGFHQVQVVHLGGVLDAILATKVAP

[2] = compound: CC1=C(C=C(C=C1)NC(=O)C2=CC(=CC=C2)N(C)C)NC(=O)C3=CC=C(C=C3)O
In short: as §1

[3] = compound: CC1=CC=C(C=C1)SC2=C3C=C(SC3=CN=C2)C(=O)N
In short: as §1

[4] = compound: CC1=NC(=CC=C1)C2=C(N=C(N2)C(C)(C)C)C3=CC4=NC=CN=C4C=C3
In short: as §1

[5] = compound: CCCCN(Cc1ccc(C(=O)NO)cc1)C(=O)Nc1ccccc1 [Nexturastat A]
In short: as §1

[6] = compound: CCCS(=O)(=O)Nc1ccc(F)c(C(=O)c2c[nH]c3ncc(-c4ccc(Cl)cc4)cc23)c1F [vemurafenib]
In short: as §1

[7] = compound: CCCS(=O)(=O)Nc1ccc(F)c(C(=O)c2c[nH]c3ncc(Cl)cc23)c1F
In short: as §1

[8] = compound: CCCc1cc(C)[nH]c(=O)c1CNC(=O)c1cc(-c2ccnc(N3CCN(C)CC3)c2)cc2c1cnn2C(C)C
In short: as §1

[9] = compound: CCN(CC)Cc1ccc2cc(COC(=O)Nc3ccc(C(=O)NO)cc3)ccc2c1 [givinostat]
In short: as §1

[10] = compound: CCN(CCCOc1ccc2c(Nc3cc(CC(=O)Nc4cccc(F)c4)[nH]n3)ncnc2c1)CCOP(=O)(O)O [barasertib]
In short: as §1

[11] = compound: CC[C@@H]1C(=O)N(C)c2cnc(Nc3ccc(C(=O)NC4CCN(C)CC4)cc3OC)nc2N1C1CCCC1
In short: as §1

[12] = compound: CC[C@@H]1C(=O)N(C)c2cnc(Nc3ccc(C(=O)N[C@H]4CC[C@H](N5CCN(CC6CC6)CC5)CC4)cc3OC)nc2N1C(C)C [volasertib]
In short: as §1

[13] = compound: CC[C@H](C)N1C=C(C2=C(C=C(C=C21)C3=CN=C(C=C3)N4CCNCC4)C(=O)NCC5=C(C=C(NC5=O)C)C)C
In short: as §1

[14] = compound: CC[C@H](C)[C@@H](C(=O)N[C@@H]([C@@H](C)O)C(=O)N[C@@H](CC(C)C)C(=O)[C@]1(CO1)C)NC(=O)[C@H]([C@@H](C)CC)N(C)C(=O)C [epoxomicin]
In short: as §1

[15] = compound: CCn1c(C(=O)N(C2CC2)C2CC2)cc2c3c(ncn3C)c(Nc3cc(C)n(C)n3)nc21
In short: as §1

[16] = compound: CCn1cc(-c2ccnc3[nH]c(-c4cccc(CN(C)C)c4)cc23)c(-c2ccc(NC(=O)N(C)C)cc2)n1
In short: as §1

[17] = compound: CN(C)CC(=O)Nc1ccc2[nH]c(=O)c3ccccc3c2c1
In short: as §1

[18] = compound: CN(CCOC1=CC=C(C=C1)C[C@H]2C(=O)NC(=O)S2)C3=CC=CC=N3 (racemic) [rosiglitazone]
In short: as §1

[19] = compound: CN1C2=C(C3=C1C(=O)N(N=C3)CC4=CC(=CC=C4)N)SC(=C2)S(=O)C
In short: as §1

[20] = compound: CN1CCC(CNc2ccc3ncc(-c4cccc(OC(F)(F)F)c4)n3n2)CC1
In short: as §1

Measured: log2 fold change

ATP2B1 isoform 1 (UniProt P20020)
inactive: [1] -0.02 | [2] 0.02 | [3] -0.003 | [4] 0.011 | [5] -0.048 | [6] -0.004 | [7] -0.03 | [8] -0.043 | [9] -0.001 | [10] -0.008 | [11] 0.122 | [12] 0.028 | [13] -0.031 | [14] -0.019 | [15] -0.004 | [16] -0.053 | [17] -0.044 | [18] 0.022 | [19] -0.083 | [20] 0.157

ATP5PO (UniProt P48047)
inactive: [1] -0.02 | [2] 0.048 | [3] 0.008 | [4] 0.01 | [5] 0 | [6] 0.027 | [7] -0.015 | [8] -0.018 | [9] 0.001 | [10] -0.004 | [11] -0.017 | [12] 0.06 | [13] -0.023 | [14] 0.069 | [15] 0.034 | [16] 0.019 | [17] 0.005 | [18] -0.025 | [19] 0.001 | [20] 0.087

ATP6V1B2 (UniProt P21281)
inactive: [1] -0.011 | [2] 0.015 | [3] -0.014 | [4] -0.017 | [5] 0.016 | [6] -0.032 | [7] -0.001 | [8] -0.013 | [9] 0.007 | [10] 0.001 | [11] -0.087 | [12] -0.029 | [13] -0.033 | [14] 0.014 | [15] 0.022 | [16] -0.111 | [17] -0.02 | [18] -0.002 | [19] -0.022 | [20] -0.091

ASRGL1 (UniProt Q7L266)
inactive: [1] 0.024 | [2] -0.019 | [3] 0.005 | [4] -0.017 | [5] -0.027 | [6] -0.04 | [7] 0.014 | [8] -0.093 | [9] 0.001 | [10] 0.047 | [11] -0.034 | [12] 0.01 | [13] -0.016 | [14] -0.015 | [15] -0.058 | [16] 0.016 | [17] 0.025 | [18] 0.05 | [19] -0.049 | [20] -0.069

ATP5PD (UniProt O75947)
inactive: [1] -0.024 | [2] 0.022 | [3] -0.007 | [4] 0.002 | [5] -0.046 | [6] -0.027 | [7] -0.035 | [8] -0.027 | [9] -0.034 | [10] -0.016 | [11] -0.03 | [12] 0.094 | [13] -0.002 | [14] 0.036 | [15] 0.027 | [16] 0.016 | [17] -0.008 | [18] -0.014 | [19] -0.059 | [20] 0.14

ASPSCR1 isoform 2 (UniProt Q9BZE9)
inactive: [1] -0.002 | [2] -0.014 | [3] 0.041 | [4] 0.031 | [5] -0.001 | [6] 0.043 | [7] 0.113 | [8] -0.008 | [9] -0.004 | [10] 0.058 | [11] 0.037 | [12] -0.084 | [13] 0.071 | [14] 0.002 | [15] -0.048 | [16] -0.01 | [17] 0.038 | [18] -0.019 | [19] -0.006 | [20] 0.04

ATG16L1 (UniProt Q676U5)
inactive: [1] -0.019 | [2] 0.029 | [3] 0.008 | [4] 0.032 | [5] -0.011 | [6] 0.019 | [7] -0.013 | [8] -0.028 | [9] -0.027 | [10] -0.011 | [11] -0.066 | [12] 0.032 | [13] 0.013 | [14] -0.018 | [15] 0.024 | [16] -0.027 | [17] 0 | [18] 0.041 | [19] -0.041 | [20] -0.046

ATP5MG (UniProt O75964)
inactive: [1] -0.023 | [2] -0.061 | [3] -0.027 | [4] -0.086 | [5] -0.062 | [6] -0.093 | [7] -0.091 | [8] -0.054 | [9] -0.019 | [10] 0 | [11] -0.014 | [12] 0.052 | [13] -0.05 | [14] 0.084 | [15] -0.01 | [16] 0.062 | [17] 0.01 | [18] -0.01 | [19] -0.044 | [20] -0.154

ATP6V1D (UniProt Q9Y5K8)
inactive: [1] -0.007 | [2] 0.019 | [3] -0.035 | [4] 0.015 | [5] -0.024 | [6] 0.005 | [7] -0.018 | [8] -0.013 | [9] 0.006 | [10] 0.014 | [11] -0.015 | [12] 0.036 | [13] -0.019 | [14] 0.009 | [15] 0.027 | [16] -0.02 | [17] -0.012 | [18] 0.018 | [19] -0.052 | [20] -0.057

ATN1 (UniProt P54259)
inactive: [1] -0.037 | [2] 0.046 | [3] -0.04 | [4] 0.089 | [5] 0.02 | [6] 0.027 | [7] 0.008 | [8] 0.003 | [9] 0.057 | [10] -0.018 | [11] -0.001 | [12] -0.03 | [13] -0.048 | [14] 0.012 | [15] 0.009 | [16] 0.022 | [17] -0.018 | [18] -0.017 | [19] -0.025 | [20] 0.033

ARMC6 (UniProt Q6NXE6)
inactive: [1] 0.069 | [2] 0.068 | [3] -0.013 | [4] -0.078 | [5] 0.361 | [6] 0.016 | [7] 0.096 | [8] 0.072 | [9] 0.14 | [10] 0.048 | [11] 0.09 | [12] -0.067 | [13] 0.273 | [14] -0.13 | [15] -0.008 | [16] 0.003 | [17] -0.008 | [18] 0.004 | [19] 0.435 | [20] 0.074

ATP5PB (UniProt P24539)
inactive: [1] 0.013 | [2] -0.018 | [3] 0.01 | [4] 0.019 | [5] -0.072 | [6] 0.021 | [7] -0.005 | [8] -0.087 | [9] 0.005 | [10] -0.007 | [11] -0.025 | [12] 0.084 | [13] -0.026 | [14] 0.003 | [15] 0.022 | [16] 0.015 | [17] 0 | [18] -0.007 | [19] 0.001 | [20] 0.057

ATP6V1E1 (UniProt P36543)
inactive: [1] -0.028 | [2] -0.017 | [3] -0.05 | [4] -0.017 | [5] 0.052 | [6] 0.028 | [7] -0.015 | [8] 0.084 | [9] 0.017 | [10] 0.015 | [11] -0.057 | [12] 0.037 | [13] 0.018 | [14] 0.007 | [15] 0.035 | [16] -0.161 | [17] 0.03 | [18] 0.033 | [19] -0.008 | [20] 0.015

Quoted at random: two entries already listed
ATP6V1D (UniProt Q9Y5K8)
inactive: [1] -0.007 | [2] 0.019 | [3] -0.035 | [4] 0.015 | [5] -0.024 | [6] 0.005 | [7] -0.018 | [8] -0.013 | [9] 0.006 | [10] 0.014 | [11] -0.015 | [12] 0.036 | [13] -0.019 | [14] 0.009 | [15] 0.027 | [16] -0.02 | [17] -0.012 | [18] 0.018 | [19] -0.052 | [20] -0.057

ARMC6 (UniProt Q6NXE6)
inactive: [1] 0.069 | [2] 0.068 | [3] -0.013 | [4] -0.078 | [5] 0.361 | [6] 0.016 | [7] 0.096 | [8] 0.072 | [9] 0.14 | [10] 0.048 | [11] 0.09 | [12] -0.067 | [13] 0.273 | [14] -0.13 | [15] -0.008 | [16] 0.003 | [17] -0.008 | [18] 0.004 | [19] 0.435 | [20] 0.074

(next part)

ARL8A (UniProt Q96BM9)
inactive: [1] 0.084 | [2] 0.031 | [3] 0.036 | [4] 0.033 | [5] -0.003 | [6] -0.047 | [7] -0.046 | [8] 0.409 | [9] 0.095 | [10] 0.025 | [11] -0.037 | [12] 0.043 | [13] 0.017 | [14] -0.008 | [15] -0.024 | [16] 0.005 | [17] -0.043 | [18] -0.003 | [19] 0 | [20] -0.127

ATP13A1 (UniProt Q9HD20)
inactive: [1] 0.028 | [2] -0.025 | [3] -0.009 | [4] 0.004 | [5] -0.078 | [6] 0.055 | [7] 0.025 | [8] -0.015 | [9] 0.053 | [10] 0.007 | [11] 0.035 | [12] 0.073 | [13] 0 | [14] 0.033 | [15] -0.038 | [16] 0.016 | [17] 0.022 | [18] 0.034 | [19] -0.066 | [20] -0.063

ASMTL (UniProt O95671)
inactive: [1] 0 | [2] -0.117 | [3] 0.018 | [4] -0.018 | [5] 0.023 | [6] -0.014 | [7] 0.04 | [8] -0.23 | [9] 0.027 | [10] 0.047 | [11] 0.106 | [12] -0.143 | [13] -0.013 | [14] -0.22 | [15] -0.072 | [16] -0.076 | [17] -0.038 | [18] -0.015 | [19] 0.006 | [20] -0.047

Source: the supplement of paper PMC10849652
